This is an account of results in PubChem BioAssay AID1487 (National Center for Advancing Translational Sciences (NCATS), 2009).

The nature of this experiment: qHTS Assay for Modulators of Lamin A Splicing. The settings on record: HeLa LMNA splicing GFP/RFP minigene ratio, 48 h. In short, it runs like this:
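Read-out is the ratio of GFP to DsRed2 object intensity, acquired by 488 nm laser-scanning cytometry on HeLa lamin A-EGFP minigene reporter cells. Compound incubation 48 hrs at 37 °C in Opti-MEM with 2% FBS; DMSO 0.5% final.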

The mark [1] stands for this setting: measured here: RFP viability control channel.
The mark [2] stands for this setting: measured here: GFP splicing reporter channel.

Where “and” joins values, the source holds several entries; their conditions need not be identical. Equal entries are not always repeated. Some of the results follow. Shown are side measurements of this screen, not its main read-out; they come without a call. Compounds called inactive in the main read-out are mostly missing here. The note in brackets gives the kind of curve behind each potency; many fits are weak.

With `COc1ccc(-c2nnc(SCC(=O)Nc3cc(C)on3)o2)cc1`, the AC50 under setting [1] was 0.00794 µM [falling, full curve, poor fit].
Regarding `Cc1cccc(NC(=O)c2cc(S(=O)(=O)NCc3ccco3)ccc2F)c1C`, the AC50 under setting [1] is 31.6 µM [rising, single point].
As to `Cc1csc(NC(=O)CCc2c(C)nc3cc(-c4ccc(Cl)cc4)nn3c2C)n1`, the AC50 under setting [1] was 5.62 µM [rising, single point].
Regarding `CCCNC(=O)NC(=O)CSc1nc2ccccc2n1CC(C)C`, the AC50 under setting [2] is 20 µM [rising, single point] and the half-maximal activity concentration (AC50) under setting [1] is 31.6 µM [rising, single point].
In the case of `O=C(NCCSCc1ccc(Cl)cc1Cl)c1ccc(CN2CCOCC2)cc1`, the AC50 is, setting by setting: under setting [2], 4.47 µM [rising, full curve]; under setting [1], 10 µM [rising, partial curve].
For `Cc1ccc(C(=O)COC(=O)CNS(=O)(=O)c2ccccc2)cc1[N+](=O)[O-]`, the AC50 under setting [2] was 14.1 µM [rising, partial curve, poor fit].
Take `CCc1ccc(OCCNC(=O)c2ccccc2SCc2ccc(F)cc2)cc1`: the AC50 under setting [1] was 28.2 µM [falling, single point].
In the case of `Cc1ccc(Nc2nc(N)nc(CN3CCN(Cc4ccc5c(c4)OCO5)CC3)n2)cc1`, the half-maximal activity concentration (AC50) under setting [1] was 10 µM [rising, partial curve, poor fit].
For the molecule `Cc1cccc(N=C2NC(=O)/C(=C/c3cccs3)S2)c1`, the AC50 is 1.78 µM [rising, partial curve, poor fit] under setting [2] and 35.5 µM [falling, single point] under setting [1].
Regarding `O=c1[nH]c2cc3c(cc2cc1CN(Cc1ccccc1)Cc1nnnn1Cc1ccco1)OCCO3`, under setting [1], the AC50 is 35.5 µM [rising, single point].
`Cc1cc(NCCCn2ccnc2)n2ncc(-c3ccc(Cl)cc3)c2n1`: under setting [1], the AC50 is 35.5 µM [falling, single point].
Regarding `Clc1ccc(-c2cnn3c(-c4ccncc4)ccnc23)cc1`, the AC50 under setting [2] was 28.2 µM [falling, single point].
For `Cc1ccc(C)c(Nc2ncnc(N)c2[N+](=O)[O-])c1`, the AC50 is 0.141 µM [rising, partial curve, poor fit] under setting [2] and 0.1 µM [rising, partial curve] under setting [1].
Regarding `O=C(NCc1ccc2c(c1)OCO2)c1ccc(Cl)c(S(=O)(=O)N2CCOCC2)c1`, the concentration at half-maximal activity (AC50) under setting [2] was 35.5 µM [falling, single point].
With `O=C(O)CC(NC(=O)Nc1ccccc1)c1ccc(OC2CCCC2)cc1` (stereo not drawn), the concentration at half-maximal activity (AC50) under setting [2] was 1.26 µM [rising, single point].
As to `COc1ccc(CCNC(=O)c2nnn(CC(=O)Nc3cccc(F)c3)c2N)cc1OC`, the AC50 was 6.31 µM [falling, partial curve] under setting [2] and 6.31 µM [falling, partial curve, poor fit] under setting [1].
`CCc1ccc(-c2csc(-c3c[nH]c4ccccc34)n2)cc1`: the AC50 under setting [1] was 25.1 µM [rising, single point].
As to `Cc1cccc(C)c1N=C1NN=C(c2ccccc2F)CS1`, the AC50 under setting [1] was 35.5 µM [rising, single point].
As for `Cc1noc(C)c1-c1ccc2ncnc(N(C)C)c2c1`, the AC50 is 14.1 µM [falling, partial curve] under setting [2] and 11.2 µM [falling, partial curve] under setting [1].
Consider `COc1cc(SC)ccc1C(=O)NCCOc1c(C)cc(C)cc1C`, for which the AC50 under setting [2] was 10 µM [rising, partial curve, poor fit].
Consider `Cc1csc(NC(=O)/C=C/c2ccc3c(c2)OCO3)n1`, for which the AC50 by setting is: under setting [2], 15.8 µM [rising, partial curve, poor fit]; under setting [1], 35.5 µM [rising, single point].
On to `COc1ccc(-c2nc(CCNC(=O)c3cccs3)cs2)cc1`, for which the AC50 under setting [2] was 17.8 µM [rising, single point] and 17.8 µM [falling, partial curve, poor fit]; the AC50 under setting [1] was 22.4 µM [rising, single point].
In the case of `COCCNC(=O)COC(=O)C1=Cc2ccccc2OC1`, the half-maximal activity concentration (AC50) under setting [2] was 22.4 µM [rising, partial curve].
As for `Cc1nn(C)c2c1c(-c1ccccc1)cc(=O)n2Cc1ccccc1Cl`, the AC50 runs as follows: under setting [2], 2.82 µM [rising, full curve, poor fit]; under setting [1], 7.08 µM [rising, partial curve].
With `S=C1NCCc2ccccc2C1c1ccccc1` (stereo not drawn), the AC50 under setting [1] is 6.31 µM [rising, partial curve, poor fit].
For `CC1CCN(S(=O)(=O)c2ccc3c(ccc(=O)n3CC(=O)Nc3ccc(C(C)C)cc3)c2)CC1`, the concentration at half-maximal activity (AC50) under setting [2] was 0.0562 µM [falling, partial curve, poor fit] and the half-maximal activity concentration (AC50) under setting [1] was 0.02 µM [falling, full curve, poor fit].
For the molecule `Cc1cc(C)c(S(=O)(=O)Nc2ccccc2-c2ccccc2)c(C)c1`, the AC50 under setting [1] is 35.5 µM [rising, single point].
`C[C@H](Cc1ccccc1)Nc1ncnc2c1ncn2[C@@H]1O[C@H](CO)[C@H](O)[C@H]1O`: the AC50 under setting [2] is 17.8 µM [rising, single point].
Regarding `CCCOc1ccc(CCC(=O)O)cc1`, the AC50 under setting [2] is 0.794 µM [falling, single point] and the AC50 under setting [1] was 1.26 µM [falling, single point].
Take `O=S(=O)(Nc1cc(Sc2cccc3cccnc23)c(O)c2ccccc12)c1ccccc1`: the AC50 is 1.12 µM [falling, full curve] under setting [2] and 2 µM [falling, partial curve] under setting [1].
As to `COc1ccc(-c2c[n+](CC(=O)OC3CC(C)CCC3C(C)C)c3n2CCC3)cc1` (stereo not drawn), the AC50 under setting [1] is 17.8 µM [rising, single point].
Regarding `N#C/C(=C\c1ccncc1)c1nc2ccccc2c(=O)[nH]1`, the AC50 under setting [2] is 6.31 µM [falling, partial curve, poor fit].
For the molecule `CCOc1ccc(C(=O)CCN2CCCCC2)cc1`, the AC50 under setting [1] is 0.00355 µM [rising, full curve, poor fit].
Take `CCC(C)c1ccc(OCCn2cc(/C=N/NC(=O)CSc3nnc(C)s3)c3ccccc32)cc1` (stereo not drawn): the AC50 under setting [1] was 12.6 µM [rising, single point].
As to `C[Se]CCC(N)C(=O)O` (stereo not drawn), the AC50 under setting [2] was 3.16 µM [falling, partial curve, poor fit].
For the molecule `COc1ccc2[nH]c(=O)c(CN(Cc3nnnn3CCc3ccccc3)CC3CCCO3)cc2c1` (stereo not drawn), the AC50 under setting [1] is 3.55 µM [rising, single point].
As to `Cc1ccc(CSCCNC(=O)c2ccc(C)cc2)cc1`, the AC50 under setting [2] was 35.5 µM [falling, single point].
`COCCCNC(=O)c1oc2c(c1C)-c1nn(Cc3ccc(Cl)cc3)cc1CC2`: the AC50 under setting [1] was 15.8 µM [rising, single point].
Take `O=C(COc1ccccc1)N1CCN(c2ccccc2)CC1`: under setting [2], the AC50 is 0.2 µM [rising, full curve, poor fit].
With `COC(=O)C1=C(C)N(c2ccc(F)c(Cl)c2)C(=O)C1`, the AC50 under setting [1] was 11.2 µM [rising, partial curve, poor fit].
In the case of `O=C1/C(=C/c2ccccc2)N=C(N2CCOCC2)N1c1cccc(Cl)c1`, the half-maximal activity concentration (AC50) under setting [1] is 31.6 µM [rising, single point].
With `CN(C)c1nc(C=C(C#N)C#N)c(Cl)n1-c1ccc(F)cc1`, the AC50 is 0.631 µM [falling, partial curve] under setting [2] and 5.01 µM [falling, full curve] under setting [1].
On to `Cc1ccc(N(C(=O)c2nsc(Cl)c2Cl)C(C(=O)NC2CCCC2)c2ccc(O)cc2)cc1C` (stereo not drawn), for which, under setting [1], the half-maximal activity concentration (AC50) was 31.6 µM [rising, partial curve].
`Cc1ccc(NC(=O)N2CCCC2C(=O)NCC2CCCO2)cc1` (stereo not drawn): the AC50 under setting [1] was 6.31 µM [falling, full curve].
With `CCN(CC(=O)NC(C)C)C(=O)CCNC(=O)c1ccc(Cl)cc1`, under setting [2], the AC50 is 6.31 µM [falling, single point].
On to `O=C(CSc1nc2nc(-c3cccs3)cc(C(F)(F)F)c2c(=O)[nH]1)Nc1ccc(F)c(F)c1`, for which, under setting [1], the concentration at half-maximal activity (AC50) is 35.5 µM [rising, single point].
On the same count and under the same terms, for `Cc1occc1-c1nnc(SCC(=O)N2CCN(c3ccc(F)cc3)CC2)n1C` the value was 25.1 µM [rising, partial curve].
With `CCOc1ccc(CCNC(=O)Cn2c(=O)c3cccn3c3ccc(F)cc32)cc1OCC`, the AC50 is, setting by setting: under setting [2], 12.6 µM [rising, partial curve, poor fit]; under setting [1], 7.94 µM [rising, full curve, poor fit].
Take `Cc1ccc(Cl)cc1-n1ncc2c(NCc3ccc(F)cc3)ncnc21`: the AC50 under setting [1] is 0.00501 µM [falling, full curve, poor fit].
Turning to `CCOC(=O)N1CCN(C(=O)C2CCN(S(=O)(=O)c3ccc(F)cc3)CC2)CC1`, the concentration at half-maximal activity (AC50) under setting [2] is 2.82 µM [rising, single point].
Still for that read-out and setting: as for `COc1cc(NC(=S)NCCc2c[nH]c3ccccc23)c(OC)cc1Cl`, the figure is 0.00355 µM [falling, full curve, poor fit].
As for `O=C(Nc1ccccc1)c1ccccc1O`, the AC50 is 12.6 µM [rising, single point] under setting [2] and 31.6 µM [rising, single point] under setting [1].
Take `COc1ccc(Cc2nnc(NC(=O)C(C)(C)C)s2)cc1`: the AC50 under setting [2] was 4.47 µM [falling, full curve, poor fit].
Regarding `CCOC(=O)CC(=O)CSc1ccc2nnc(-c3cccc(F)c3)n2n1`, the AC50 under setting [1] is 0.891 µM [rising, partial curve].
Turning to `O=C(NC1CCCC1)C(c1ccccc1)N(Cc1ccc2c(c1)OCO2)C(=O)Cc1cccs1` (stereo not drawn), the AC50 under setting [1] was 25.1 µM [rising, single point].
Turning to `CC(=O)Nc1ccc(NC(=O)c2ccccc2Sc2ccc([N+](=O)[O-])cc2Cl)cc1`, under setting [1], the AC50 was 12.6 µM [rising, partial curve, poor fit].
As for `CC12CCC(C(=O)N3CCC(Cc4ccccc4)CC3)(C(=O)C1=O)C2(C)C` (stereo not drawn), the half-maximal activity concentration (AC50) under setting [1] is 10 µM [rising, partial curve].
Take `COc1ccc(NC(=O)c2cccnc2SC)cc1OC`: the AC50 under setting [1] is 1.58 µM [falling, full curve, poor fit].
